Source: patent US11932658B2 (BRISTOL-MYERS SQUIBB COMPANY, priority 2016, dated 2024)
Not every detail of the peptide structures is certain; ends, links or a residue may be inferred.

Target: T1, PAR4 (Homo sapiens, UniProt Q96RI0)
T1 construct: expressed in transfected cells; host or cells: HEK293 PAR4 Clone 1.2A (BMS Arctic ID 383940)
T1 sequence (Q96RI0 18-385): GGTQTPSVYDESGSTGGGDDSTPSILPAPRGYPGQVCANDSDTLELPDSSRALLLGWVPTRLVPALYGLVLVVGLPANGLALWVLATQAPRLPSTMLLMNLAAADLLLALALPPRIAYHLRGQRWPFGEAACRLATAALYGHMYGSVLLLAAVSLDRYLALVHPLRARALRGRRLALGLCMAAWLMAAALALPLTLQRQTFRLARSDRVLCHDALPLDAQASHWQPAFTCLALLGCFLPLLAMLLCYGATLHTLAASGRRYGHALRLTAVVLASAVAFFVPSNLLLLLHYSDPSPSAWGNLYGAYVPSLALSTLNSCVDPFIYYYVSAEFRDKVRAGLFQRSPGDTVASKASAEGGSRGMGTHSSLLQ
Test: FLIPR assay, PAR4 agonist activity of agonist peptides
Type: cell-based
Details: PAR4-expressing HEK293 cells

In the case of `C[C@H](N)C(=O)N[C@@H](Cc1ccc(O)cc1)C(=O)N1CCC[C@H]1C(=O)NCC(=O)N[C@@H](CCCCN)C(=O)N[C@@H](Cc1ccccc1)C(=O)O` [AYPGKF], the EC50 is reported as 60 µM.
